Laboratory results taken from the supplement of paper PMC11006884.
The list shows a part of the results, in another mix than the full data. Single values of this set are uncertain.

By UniProt entry, the sequences of proteins in these tests, tags left out. Where a name states a change or a piece, a line headed by the entry shows the natural chain unless it says otherwise.
UniProt P53396: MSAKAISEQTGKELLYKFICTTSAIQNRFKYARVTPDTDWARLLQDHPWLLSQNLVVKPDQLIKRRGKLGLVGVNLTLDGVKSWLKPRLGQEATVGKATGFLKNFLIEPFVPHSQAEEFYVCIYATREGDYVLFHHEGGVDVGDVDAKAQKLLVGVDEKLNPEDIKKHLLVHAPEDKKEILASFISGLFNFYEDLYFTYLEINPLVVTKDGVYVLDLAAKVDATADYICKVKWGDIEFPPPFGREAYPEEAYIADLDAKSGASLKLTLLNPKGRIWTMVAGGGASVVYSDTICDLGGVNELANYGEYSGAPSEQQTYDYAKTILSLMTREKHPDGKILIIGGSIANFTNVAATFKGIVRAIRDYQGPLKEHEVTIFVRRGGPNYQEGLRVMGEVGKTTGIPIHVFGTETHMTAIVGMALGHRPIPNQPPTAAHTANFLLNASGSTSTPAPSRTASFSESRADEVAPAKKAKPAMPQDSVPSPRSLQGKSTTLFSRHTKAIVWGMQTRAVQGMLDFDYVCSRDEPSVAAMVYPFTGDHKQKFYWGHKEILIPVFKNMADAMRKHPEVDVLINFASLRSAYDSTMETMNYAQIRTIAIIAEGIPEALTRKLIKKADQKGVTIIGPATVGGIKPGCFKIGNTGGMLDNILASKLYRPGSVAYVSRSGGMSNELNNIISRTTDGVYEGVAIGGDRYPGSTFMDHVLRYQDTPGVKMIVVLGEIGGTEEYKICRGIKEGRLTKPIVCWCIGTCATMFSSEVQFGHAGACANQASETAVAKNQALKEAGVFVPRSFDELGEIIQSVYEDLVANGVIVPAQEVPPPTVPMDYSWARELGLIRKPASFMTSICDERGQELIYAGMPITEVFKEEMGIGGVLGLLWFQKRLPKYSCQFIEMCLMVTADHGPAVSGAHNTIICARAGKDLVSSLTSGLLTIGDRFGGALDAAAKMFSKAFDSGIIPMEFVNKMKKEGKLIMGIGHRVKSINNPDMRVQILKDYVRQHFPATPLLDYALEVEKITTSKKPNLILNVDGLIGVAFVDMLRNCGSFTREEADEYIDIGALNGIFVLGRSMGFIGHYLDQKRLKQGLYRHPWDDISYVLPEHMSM
UniProt P55884, whole entry, looked up: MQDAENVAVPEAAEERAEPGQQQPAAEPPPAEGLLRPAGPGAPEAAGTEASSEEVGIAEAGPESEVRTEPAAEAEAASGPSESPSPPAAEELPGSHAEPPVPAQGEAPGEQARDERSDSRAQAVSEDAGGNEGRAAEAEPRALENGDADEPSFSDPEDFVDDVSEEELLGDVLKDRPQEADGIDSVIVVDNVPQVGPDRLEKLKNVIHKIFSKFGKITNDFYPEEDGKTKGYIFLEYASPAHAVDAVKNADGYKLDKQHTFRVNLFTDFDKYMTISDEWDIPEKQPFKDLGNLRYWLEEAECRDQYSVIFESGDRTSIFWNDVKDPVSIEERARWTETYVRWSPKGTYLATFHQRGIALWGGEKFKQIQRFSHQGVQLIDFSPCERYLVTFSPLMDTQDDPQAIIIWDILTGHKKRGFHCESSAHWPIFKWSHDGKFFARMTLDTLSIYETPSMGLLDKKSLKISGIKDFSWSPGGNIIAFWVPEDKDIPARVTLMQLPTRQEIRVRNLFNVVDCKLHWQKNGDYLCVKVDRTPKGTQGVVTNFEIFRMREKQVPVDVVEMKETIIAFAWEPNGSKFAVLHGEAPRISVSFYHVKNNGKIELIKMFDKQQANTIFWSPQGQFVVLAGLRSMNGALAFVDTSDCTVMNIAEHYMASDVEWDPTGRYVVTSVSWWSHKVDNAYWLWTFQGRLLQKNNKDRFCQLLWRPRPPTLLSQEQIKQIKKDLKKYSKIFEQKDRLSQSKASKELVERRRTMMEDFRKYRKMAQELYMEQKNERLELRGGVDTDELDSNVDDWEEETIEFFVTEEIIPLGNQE
UniProt P52701: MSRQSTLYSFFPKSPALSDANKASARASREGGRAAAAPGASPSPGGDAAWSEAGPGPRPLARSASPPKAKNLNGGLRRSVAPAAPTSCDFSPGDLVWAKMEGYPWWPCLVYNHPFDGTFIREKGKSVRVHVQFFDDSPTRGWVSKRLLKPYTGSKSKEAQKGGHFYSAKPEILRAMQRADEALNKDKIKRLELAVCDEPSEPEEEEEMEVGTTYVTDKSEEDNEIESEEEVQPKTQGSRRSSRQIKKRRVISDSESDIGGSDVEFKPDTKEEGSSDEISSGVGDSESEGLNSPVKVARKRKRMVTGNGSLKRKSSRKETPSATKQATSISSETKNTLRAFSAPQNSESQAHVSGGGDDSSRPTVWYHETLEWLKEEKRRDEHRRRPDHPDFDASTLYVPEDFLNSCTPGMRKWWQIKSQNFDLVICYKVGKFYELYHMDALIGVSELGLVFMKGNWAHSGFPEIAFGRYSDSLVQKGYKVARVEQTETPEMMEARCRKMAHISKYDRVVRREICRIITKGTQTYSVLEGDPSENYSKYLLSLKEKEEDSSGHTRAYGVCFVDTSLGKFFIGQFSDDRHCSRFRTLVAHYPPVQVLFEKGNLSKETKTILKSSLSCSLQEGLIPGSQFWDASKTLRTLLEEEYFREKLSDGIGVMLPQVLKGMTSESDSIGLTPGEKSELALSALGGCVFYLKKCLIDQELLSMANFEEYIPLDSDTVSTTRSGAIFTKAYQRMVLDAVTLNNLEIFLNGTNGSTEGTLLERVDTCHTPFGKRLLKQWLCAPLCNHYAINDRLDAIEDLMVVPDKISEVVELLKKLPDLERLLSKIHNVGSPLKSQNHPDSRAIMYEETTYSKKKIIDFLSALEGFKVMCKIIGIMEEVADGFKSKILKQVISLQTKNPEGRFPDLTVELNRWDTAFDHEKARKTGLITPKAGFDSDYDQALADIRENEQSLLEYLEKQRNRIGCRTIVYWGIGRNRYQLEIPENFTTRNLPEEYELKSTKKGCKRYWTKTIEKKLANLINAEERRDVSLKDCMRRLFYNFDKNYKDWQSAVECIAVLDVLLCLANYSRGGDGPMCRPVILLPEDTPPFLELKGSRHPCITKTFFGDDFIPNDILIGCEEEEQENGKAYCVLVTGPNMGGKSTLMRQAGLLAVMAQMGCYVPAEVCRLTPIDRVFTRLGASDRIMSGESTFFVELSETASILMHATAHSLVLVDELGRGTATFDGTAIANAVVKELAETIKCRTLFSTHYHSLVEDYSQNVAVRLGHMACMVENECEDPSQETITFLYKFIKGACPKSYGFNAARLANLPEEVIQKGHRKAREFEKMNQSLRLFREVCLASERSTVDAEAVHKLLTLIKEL
UniProt P53618: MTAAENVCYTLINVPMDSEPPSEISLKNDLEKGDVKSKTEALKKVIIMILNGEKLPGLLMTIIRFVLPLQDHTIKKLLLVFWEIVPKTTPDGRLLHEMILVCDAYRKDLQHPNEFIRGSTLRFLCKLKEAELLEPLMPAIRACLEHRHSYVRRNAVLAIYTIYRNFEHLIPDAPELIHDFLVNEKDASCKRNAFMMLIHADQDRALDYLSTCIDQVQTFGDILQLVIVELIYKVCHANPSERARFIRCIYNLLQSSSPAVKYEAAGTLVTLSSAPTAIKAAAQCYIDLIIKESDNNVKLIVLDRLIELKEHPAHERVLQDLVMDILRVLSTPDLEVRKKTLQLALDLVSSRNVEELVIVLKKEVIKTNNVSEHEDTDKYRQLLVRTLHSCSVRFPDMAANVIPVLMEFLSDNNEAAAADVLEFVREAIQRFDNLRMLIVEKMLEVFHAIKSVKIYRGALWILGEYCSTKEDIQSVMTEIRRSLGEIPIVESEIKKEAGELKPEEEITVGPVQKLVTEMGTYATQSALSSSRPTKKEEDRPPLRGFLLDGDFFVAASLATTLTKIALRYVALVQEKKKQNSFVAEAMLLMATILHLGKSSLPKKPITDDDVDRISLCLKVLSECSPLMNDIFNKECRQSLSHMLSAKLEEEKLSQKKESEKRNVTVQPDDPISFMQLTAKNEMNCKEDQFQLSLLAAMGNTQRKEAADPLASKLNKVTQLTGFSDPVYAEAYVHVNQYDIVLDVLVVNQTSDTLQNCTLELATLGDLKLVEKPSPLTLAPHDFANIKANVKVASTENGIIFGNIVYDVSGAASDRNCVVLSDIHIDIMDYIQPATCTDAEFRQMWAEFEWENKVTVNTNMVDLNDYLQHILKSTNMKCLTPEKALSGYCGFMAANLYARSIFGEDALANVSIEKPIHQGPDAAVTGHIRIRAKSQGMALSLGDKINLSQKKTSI
UniProt P51991: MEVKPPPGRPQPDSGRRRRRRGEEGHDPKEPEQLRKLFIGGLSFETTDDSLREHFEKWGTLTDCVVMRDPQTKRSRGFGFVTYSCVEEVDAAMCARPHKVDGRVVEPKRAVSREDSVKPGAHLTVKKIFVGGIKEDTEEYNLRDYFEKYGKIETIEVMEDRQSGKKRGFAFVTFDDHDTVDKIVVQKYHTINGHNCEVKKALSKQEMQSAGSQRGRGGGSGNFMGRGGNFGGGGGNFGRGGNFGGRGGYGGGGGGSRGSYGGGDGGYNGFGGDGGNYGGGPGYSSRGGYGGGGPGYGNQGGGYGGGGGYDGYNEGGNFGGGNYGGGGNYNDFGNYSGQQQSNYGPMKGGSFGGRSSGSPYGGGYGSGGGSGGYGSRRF
UniProt P60468, whole entry: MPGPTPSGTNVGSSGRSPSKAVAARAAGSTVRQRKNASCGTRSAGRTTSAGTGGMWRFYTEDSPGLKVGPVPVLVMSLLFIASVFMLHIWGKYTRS
UniProt P55010, whole entry: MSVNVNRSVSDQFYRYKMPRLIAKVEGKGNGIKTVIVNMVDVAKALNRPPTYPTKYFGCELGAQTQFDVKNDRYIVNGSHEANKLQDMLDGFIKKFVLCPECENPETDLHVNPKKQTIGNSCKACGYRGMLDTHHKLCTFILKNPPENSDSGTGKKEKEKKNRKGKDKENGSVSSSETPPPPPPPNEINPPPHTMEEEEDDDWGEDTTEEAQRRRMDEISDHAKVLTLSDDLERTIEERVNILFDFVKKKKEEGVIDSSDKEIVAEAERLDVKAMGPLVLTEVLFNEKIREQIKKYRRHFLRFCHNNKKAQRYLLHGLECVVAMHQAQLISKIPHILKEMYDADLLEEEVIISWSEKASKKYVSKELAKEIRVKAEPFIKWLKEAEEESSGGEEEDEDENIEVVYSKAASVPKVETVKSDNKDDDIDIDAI
UniProt P57772: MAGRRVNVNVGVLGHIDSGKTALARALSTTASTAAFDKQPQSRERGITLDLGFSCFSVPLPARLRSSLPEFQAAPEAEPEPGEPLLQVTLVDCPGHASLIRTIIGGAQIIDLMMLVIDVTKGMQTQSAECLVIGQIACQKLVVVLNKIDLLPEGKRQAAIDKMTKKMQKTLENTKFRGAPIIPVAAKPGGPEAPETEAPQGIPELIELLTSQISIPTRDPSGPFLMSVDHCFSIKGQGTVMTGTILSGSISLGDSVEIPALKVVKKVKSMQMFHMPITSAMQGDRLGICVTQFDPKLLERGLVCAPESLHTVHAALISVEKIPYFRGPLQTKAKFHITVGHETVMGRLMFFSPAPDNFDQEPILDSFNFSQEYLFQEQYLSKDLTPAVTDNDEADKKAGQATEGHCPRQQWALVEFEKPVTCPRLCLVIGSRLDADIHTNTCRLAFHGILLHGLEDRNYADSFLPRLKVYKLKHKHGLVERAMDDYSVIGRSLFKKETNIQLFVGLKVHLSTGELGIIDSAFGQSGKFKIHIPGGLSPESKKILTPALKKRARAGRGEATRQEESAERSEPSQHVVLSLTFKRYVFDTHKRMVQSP
UniProt P61163, whole entry, looked up: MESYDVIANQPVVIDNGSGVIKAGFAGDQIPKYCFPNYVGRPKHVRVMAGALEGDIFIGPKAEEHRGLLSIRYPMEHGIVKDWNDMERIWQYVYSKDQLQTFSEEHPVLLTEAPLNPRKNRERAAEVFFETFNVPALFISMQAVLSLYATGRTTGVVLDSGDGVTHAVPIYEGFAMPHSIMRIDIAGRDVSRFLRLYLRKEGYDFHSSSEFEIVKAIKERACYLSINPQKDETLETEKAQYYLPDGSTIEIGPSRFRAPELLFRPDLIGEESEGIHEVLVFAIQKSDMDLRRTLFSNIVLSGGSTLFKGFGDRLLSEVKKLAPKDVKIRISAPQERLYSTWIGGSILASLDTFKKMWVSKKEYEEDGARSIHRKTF
UniProt P56182: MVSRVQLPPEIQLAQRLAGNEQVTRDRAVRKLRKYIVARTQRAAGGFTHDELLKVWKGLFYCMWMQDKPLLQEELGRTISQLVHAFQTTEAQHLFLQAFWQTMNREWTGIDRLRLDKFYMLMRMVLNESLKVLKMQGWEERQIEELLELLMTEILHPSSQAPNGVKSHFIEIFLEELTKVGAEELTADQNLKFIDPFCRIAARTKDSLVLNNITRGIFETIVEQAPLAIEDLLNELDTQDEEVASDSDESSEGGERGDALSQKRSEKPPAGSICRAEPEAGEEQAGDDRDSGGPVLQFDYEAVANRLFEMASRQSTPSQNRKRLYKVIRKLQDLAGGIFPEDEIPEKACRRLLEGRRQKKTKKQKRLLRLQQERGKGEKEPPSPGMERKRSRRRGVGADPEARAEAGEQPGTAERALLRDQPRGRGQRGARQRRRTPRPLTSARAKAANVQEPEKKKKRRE

The targets below were run with COC(=O)/C=C/c1ccccc1 [methyl cinnamate] (assay: log2 ratio of iodoacetamide-alkyne labeling of the cysteine site, DMSO over compound (competition); higher = stronger covalent engagement of the cysteine by the compound, active = 1 or more). Settings: 500 µM; treatment time 1 h; system: HEK293T cell lysate.
Summary of the method: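 HEK293T lysate at 2 mg/mL was treated with vehicle or electrophile (500 µM) for 1 h at ambient temperature, then labelled with iodoacetamide alkyne (1 h), clicked to sCIP-TMT reagents, pooled, digested with trypsin overnight at 37 °C, enriched on streptavidin and eluted with acid. Peptides were analysed by Orbitrap Eclipse LC-MS/MS with FAIMS and quantified in FragPipe, using duplicate channels and three replicates, with cysteines quantified in only one replicate excluded. The log2 competition ratio for each cysteine is the mean control-channel reporter intensity divided by the mean compound-channel reporter intensity.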

log2 ratio of iodoacetamide-alkyne labeling, inactive:
PMS2 C798 (UniProt P54278) 0.119
UniProt P62258_C97 0.0937
TPI1 C104 (UniProt P60174) 0.172
KPNA2 C272 (UniProt P52292) -0.24
ACLY C633 (UniProt P53396) 0.187
EIF3B C700 (UniProt P55884) 0.0663
RARS C369 (UniProt P54136) 0.0319
MSH6 C694 (UniProt P52701) -0.0912
COPB1 C684 (UniProt P53618) -0.0395
HNRNPA3 C196 (UniProt P51991) 0.131
SEC61B C39 (UniProt P60468) 0.641
MARS C38 (UniProt P56192) -0.107
HNRNPH2 C22 (UniProt P55795) -0.0741
UniProt P61978_C184 0.0704
EIF5 C59 (UniProt P55010) 0.138
ADAR C630 (UniProt P55265) 0.156
ADAR C519 (UniProt P55265) -0.148
BLM C698 (UniProt P54132) 0.139
EIF3B C420 (UniProt P55884) -0.0155
UniProt P62241_C71 0.304
NCBP2 C81 (UniProt P52298) 0.204
ACLY C20 (UniProt P53396) 0.15
HADHB C458 (UniProt P55084) 0.0535
UniProt P60763_C178 0.167
UniProt P60228_C250 0.477
MSH6 C1337 (UniProt P52701) 0.163
EEFSEC C55 (UniProt P57772) 0.0122
ACLY C845 (UniProt P53396) 0.0996
ACTR3 C8 (UniProt P61158) -0.0247
MARS C441 (UniProt P56192) 0.0368
UniProt P61163_C34 0.277
MSH6 C108 (UniProt P52701) -0.0141
HNRNPA3 C85 (UniProt P51991) -0.00216
RRP1 C274 (UniProt P56182) 0.339
NUBP1 C235 (UniProt P53384) -0.283
CTBP2 C44 (UniProt P56545) 0.408
HIRA C882 (UniProt P54198) 0.0603

As a working copy, some entries already given:
log2 ratio of iodoacetamide-alkyne labeling, inactive:
BLM C698 (UniProt P54132) 0.139
EIF3B C420 (UniProt P55884) -0.0155
UniProt P62241_C71 0.304
